Data published in patent US9593149B2 (Novo Nordisk A/S, priority 2014, dated 2017).

Columns and labels:
[1] = general procedure: Fmoc solid-phase peptide synthesis; PAL AM resin; DIC/HOAt or DIC/Oxyma; conditions: whole synthesis, scale 400 mg resin (0.61 mmol/g)
[2] = general procedure: Fmoc solid-phase peptide synthesis; Tentagel S RAM (about 0.25 mmol/g) or PAL-ChemMatrix (about 0.43 mmol/g) or PAL AM (0.5-0.75 mmol/g); DIC/HOAt or DIC/Oxyma; conditions: whole synthesis
[3] = general procedure: Fmoc solid-phase peptide synthesis; PAL ChemMatrix resin; DIC/HOAt or DIC/Oxyma; conditions: whole synthesis, scale 600 mg resin (0.43 mmol/g)

| Substance | crude mass [1] [mg] | crude purity (method not given) [2] | final purity (method not given) [2] [%] | crude mass [3] [mg] |
| --- | --- | --- | --- | --- |
| H-EASELSTAALGRLSAELHELATLPRTETGPESP-NH2 | 800 | about 50% | >90 | – |
| [N-terminal(C18 diacid)]mimylin | – | about 55% | >90 | 700 |
